{"sequences": {"note": "Chains of the proteins cited; added tags and fusions are not shown.", "UniProt Q01628": "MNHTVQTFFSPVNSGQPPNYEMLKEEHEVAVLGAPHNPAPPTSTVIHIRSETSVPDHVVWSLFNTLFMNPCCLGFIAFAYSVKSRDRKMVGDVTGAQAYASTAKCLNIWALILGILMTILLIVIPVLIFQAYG", "UniProt P13164": "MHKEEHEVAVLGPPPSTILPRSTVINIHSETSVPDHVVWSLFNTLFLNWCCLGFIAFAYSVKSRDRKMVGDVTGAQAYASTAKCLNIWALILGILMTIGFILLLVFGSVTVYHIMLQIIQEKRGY"}, "source": "paper doi:10.1101/2025.06.01.657267", "about": "“IFITM1 and IFITM3 cooperate to restrict virus entry in endolysosomes” (bioRxiv, 2025)", "biological_target": "FLAG-IFITM3 WT (human) (UniProt Q01628)", "assay": "affinity purification with mass spectrometry; anti-FLAG (M2) immunoprecipitation from whole cell lysates (1% Triton X-100, 150 mM NaCl) of HEK293T stably expressing FLAG-IFITM3 WT, G95L or Empty Vector; TMT labelling, duplicate MS runs", "note": "Results are given in words; binding and its absence hold for the method and conditions named. In cells and extracts the contact can be indirect. These calls come from enrichment with a bait or labelling near it, and not all partners need be listed.", "data": [{"substance": "endogenous IFITM1 (from UniProt P13164 1-125)", "values": [{"measurement": "binding", "result": "binds"}]}]}
